Experimental data published in PMC4161973.
No constants are given. Whether binding was seen depends on the method and setting. For part of these data: Sequences can lack the tags named with a protein.

Protein sequences, listed by entry. Tags and fused reporters are not part of them.
UniProt Q06142: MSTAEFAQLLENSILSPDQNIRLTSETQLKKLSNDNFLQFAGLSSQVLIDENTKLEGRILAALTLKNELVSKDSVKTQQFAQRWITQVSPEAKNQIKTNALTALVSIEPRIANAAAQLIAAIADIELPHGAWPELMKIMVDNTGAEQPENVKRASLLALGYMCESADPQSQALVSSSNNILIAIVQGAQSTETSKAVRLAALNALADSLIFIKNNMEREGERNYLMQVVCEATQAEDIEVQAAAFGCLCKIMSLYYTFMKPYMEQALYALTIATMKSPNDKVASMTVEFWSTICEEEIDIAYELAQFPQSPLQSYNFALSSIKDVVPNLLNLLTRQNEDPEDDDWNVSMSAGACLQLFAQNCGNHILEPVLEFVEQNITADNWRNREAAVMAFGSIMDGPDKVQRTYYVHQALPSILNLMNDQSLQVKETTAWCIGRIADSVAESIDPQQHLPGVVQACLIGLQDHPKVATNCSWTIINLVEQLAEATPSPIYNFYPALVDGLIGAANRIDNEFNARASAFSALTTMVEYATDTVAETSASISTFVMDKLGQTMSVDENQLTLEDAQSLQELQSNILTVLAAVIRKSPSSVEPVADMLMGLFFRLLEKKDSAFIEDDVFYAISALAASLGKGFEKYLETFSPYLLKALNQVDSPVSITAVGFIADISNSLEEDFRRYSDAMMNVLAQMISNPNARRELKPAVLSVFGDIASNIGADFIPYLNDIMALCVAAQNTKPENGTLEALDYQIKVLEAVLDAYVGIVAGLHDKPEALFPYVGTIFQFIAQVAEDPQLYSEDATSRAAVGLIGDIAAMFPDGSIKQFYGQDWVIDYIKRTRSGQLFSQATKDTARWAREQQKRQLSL

Assays:
Experiment in all cases: pull-down; GST-importins immobilised on Glutathione Sepharose, incubated with purified 3.4 µM Tsr2 or 4 µM Tsr2:eS26 in PBSKMT with competing E. coli lysates for 1 hr at 4°C; Coomassie Blue staining or Western; both purified
GST-Pse1 (S. cerevisiae) = molecular target: T1, GST-Pse1 (S. cerevisiae) (UniProt P32337)
T1 sequence: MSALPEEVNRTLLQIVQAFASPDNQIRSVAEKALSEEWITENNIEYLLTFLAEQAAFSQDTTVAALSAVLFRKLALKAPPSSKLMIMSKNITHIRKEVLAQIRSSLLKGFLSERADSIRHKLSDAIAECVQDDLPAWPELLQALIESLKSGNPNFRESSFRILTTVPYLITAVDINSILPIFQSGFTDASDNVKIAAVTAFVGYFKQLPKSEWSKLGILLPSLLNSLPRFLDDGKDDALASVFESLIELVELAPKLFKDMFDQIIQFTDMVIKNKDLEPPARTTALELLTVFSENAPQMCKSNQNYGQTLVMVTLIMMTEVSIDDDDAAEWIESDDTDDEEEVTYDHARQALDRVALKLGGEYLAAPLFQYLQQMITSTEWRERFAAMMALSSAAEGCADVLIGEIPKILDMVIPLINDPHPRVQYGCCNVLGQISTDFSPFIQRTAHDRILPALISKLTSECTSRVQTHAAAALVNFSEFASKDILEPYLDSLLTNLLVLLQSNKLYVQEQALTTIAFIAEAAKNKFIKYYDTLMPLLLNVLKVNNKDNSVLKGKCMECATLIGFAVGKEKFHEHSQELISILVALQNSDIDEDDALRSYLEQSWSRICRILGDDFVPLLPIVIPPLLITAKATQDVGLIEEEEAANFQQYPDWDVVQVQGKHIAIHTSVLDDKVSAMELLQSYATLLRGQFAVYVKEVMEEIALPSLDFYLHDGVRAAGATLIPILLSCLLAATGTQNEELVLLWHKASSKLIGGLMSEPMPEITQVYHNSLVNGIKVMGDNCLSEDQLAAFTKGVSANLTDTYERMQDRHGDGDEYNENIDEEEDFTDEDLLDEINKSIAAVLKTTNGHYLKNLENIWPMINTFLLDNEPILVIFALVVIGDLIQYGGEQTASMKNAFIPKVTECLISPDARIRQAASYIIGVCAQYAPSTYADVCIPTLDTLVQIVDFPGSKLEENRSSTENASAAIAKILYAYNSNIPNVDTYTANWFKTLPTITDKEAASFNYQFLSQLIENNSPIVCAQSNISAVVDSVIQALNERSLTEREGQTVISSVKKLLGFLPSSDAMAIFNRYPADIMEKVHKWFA

[1] = molecular target: GST-tagged Kap95 (S. cerevisiae) (UniProt Q06142)
[2] = molecular target: T2, GST-tagged Nmd5 (S. cerevisiae) (UniProt P46970)
T2 sequence: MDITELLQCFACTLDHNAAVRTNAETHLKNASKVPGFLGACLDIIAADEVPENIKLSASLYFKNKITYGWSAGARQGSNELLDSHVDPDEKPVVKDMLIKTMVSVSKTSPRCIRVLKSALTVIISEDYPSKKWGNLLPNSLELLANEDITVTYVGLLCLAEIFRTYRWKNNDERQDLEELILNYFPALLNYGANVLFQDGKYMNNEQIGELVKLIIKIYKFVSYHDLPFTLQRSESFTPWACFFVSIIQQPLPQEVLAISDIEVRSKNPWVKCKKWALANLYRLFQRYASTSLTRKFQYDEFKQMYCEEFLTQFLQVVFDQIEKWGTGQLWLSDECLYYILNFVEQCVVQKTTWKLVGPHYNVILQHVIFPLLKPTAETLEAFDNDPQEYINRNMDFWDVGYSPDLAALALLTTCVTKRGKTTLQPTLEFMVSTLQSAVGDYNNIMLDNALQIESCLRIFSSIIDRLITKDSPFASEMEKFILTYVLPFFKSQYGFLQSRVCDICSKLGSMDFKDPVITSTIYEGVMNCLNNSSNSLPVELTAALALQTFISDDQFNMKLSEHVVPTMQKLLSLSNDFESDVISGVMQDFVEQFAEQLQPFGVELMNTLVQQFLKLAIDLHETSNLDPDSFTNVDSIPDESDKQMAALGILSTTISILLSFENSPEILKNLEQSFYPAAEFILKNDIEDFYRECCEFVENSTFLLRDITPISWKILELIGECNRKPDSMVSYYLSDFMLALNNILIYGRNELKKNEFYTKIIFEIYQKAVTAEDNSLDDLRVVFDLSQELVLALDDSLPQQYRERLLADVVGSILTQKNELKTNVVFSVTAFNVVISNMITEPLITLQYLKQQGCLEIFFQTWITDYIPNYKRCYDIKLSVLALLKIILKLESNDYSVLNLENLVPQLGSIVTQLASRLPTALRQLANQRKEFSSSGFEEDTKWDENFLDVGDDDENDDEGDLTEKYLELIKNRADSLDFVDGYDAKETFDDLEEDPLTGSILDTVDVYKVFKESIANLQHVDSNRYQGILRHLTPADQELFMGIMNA

Measured: binding

B1: Tsr2, purified recombinant (protein, UniProt Q06672 1-205)
chain: MSTQYIDETAFVQAEQGKTNLMFSDEKQQARFELGVSMVIYKWDALDVAVENSWGGPDSAEKRDWITGIVVDLFKNEKVVDAALIEETLLYAMIDEFETNVEDDSALPIAVEVINIYNDCFNLNYNKVEKLYLEWQEKQRTKKSKRVVHIEGDDDEDDEDVEDYDDEDEDEEMDEVVPDLVSSKPEPIVDEDGFELVQPKGRRKH
no binding (tested: 3.4 µM Tsr2): all assays above
